Data published in US20240279357A1 (THERINI BIO, published 2024).
Where a chain is given by its changes, count along the chain named. Numbers in names are those of the source. No constants are given. Whether binding was seen depends on the method and setting. Some binding calls cover weakened binding; strength is not graded here.

T1: P2 peptide comprising SEQ ID NO: 31 (human fibrin γ377-395) (human)
T1 sequence (peptide): YSMKKTTMKIIPFNRLTIG

T2: fibrin(ogen) accumulated in spinal cord lesions of mice with chronic EAE (mouse) (UniProt E9PV24+Q8K0E8+Q8VCM7)
T2 sequence (looked up) 1: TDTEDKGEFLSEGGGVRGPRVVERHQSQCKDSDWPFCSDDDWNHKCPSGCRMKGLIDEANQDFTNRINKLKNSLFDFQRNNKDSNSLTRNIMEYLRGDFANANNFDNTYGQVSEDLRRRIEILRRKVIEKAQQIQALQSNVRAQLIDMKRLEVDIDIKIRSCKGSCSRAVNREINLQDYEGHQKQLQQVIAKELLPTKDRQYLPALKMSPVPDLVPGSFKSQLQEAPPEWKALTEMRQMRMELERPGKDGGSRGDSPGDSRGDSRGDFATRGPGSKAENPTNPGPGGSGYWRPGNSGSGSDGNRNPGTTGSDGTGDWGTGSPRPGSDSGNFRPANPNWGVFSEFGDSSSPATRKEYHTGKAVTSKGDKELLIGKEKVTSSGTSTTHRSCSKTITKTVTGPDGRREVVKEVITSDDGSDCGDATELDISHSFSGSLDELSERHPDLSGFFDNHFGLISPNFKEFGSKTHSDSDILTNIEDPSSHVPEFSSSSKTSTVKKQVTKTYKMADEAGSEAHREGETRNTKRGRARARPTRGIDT
T2 sequence (looked up) 2: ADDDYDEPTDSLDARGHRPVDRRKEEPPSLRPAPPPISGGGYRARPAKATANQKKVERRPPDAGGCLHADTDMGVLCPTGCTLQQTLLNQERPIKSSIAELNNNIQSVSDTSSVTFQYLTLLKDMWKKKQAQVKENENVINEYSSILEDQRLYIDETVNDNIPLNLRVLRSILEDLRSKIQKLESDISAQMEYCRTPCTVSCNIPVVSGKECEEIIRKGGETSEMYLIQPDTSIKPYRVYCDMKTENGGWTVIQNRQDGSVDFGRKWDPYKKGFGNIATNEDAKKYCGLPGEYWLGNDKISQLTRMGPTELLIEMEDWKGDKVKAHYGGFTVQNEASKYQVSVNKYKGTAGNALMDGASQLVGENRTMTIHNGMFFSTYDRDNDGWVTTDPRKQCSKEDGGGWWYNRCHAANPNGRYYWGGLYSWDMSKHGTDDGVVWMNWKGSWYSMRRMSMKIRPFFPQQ
T2 sequence (looked up) 3: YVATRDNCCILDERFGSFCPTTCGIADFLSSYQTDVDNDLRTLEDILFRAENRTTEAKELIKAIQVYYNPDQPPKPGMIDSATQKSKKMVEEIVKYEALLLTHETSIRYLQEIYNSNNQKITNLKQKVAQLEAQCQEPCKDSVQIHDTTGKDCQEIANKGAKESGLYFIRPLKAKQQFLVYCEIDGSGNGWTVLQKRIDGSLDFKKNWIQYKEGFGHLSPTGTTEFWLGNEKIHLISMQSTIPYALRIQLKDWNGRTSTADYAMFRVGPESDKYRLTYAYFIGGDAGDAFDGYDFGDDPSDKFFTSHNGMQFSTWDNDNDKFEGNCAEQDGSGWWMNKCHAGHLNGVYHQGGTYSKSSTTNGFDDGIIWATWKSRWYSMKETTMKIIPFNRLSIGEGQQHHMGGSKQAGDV

B1: VH4 C102A/VK2 (antibody, IgG1, V domains shown)
VH: QVQLVQSGAEVKKPGSSVKVSCKASGYTFTSYWIHWVRQAPGQGLEWIGLIDPSDSYTNYNQKFRGRVTITVDTSTSTAYMELSSLRSEDTAVYYCASSDPTGAWGQGTTVTVSS
VL: DIVMTQAAFSNPVTPGTPASISCRSSKSLLHSSGITYLSWYLQKPGQSPQLLIYQMSNLASGVPDRFSSSGSGTDFTLKISRVEAEDVGVYYCAQNLELPLTFGQGTKLEIK
notes: IgG1, tested from HEK supernatant
B2: VH4 C102L/VK2 (antibody, IgG1, V domains shown)
VH: B1 VH with A104L
VL: B1 VL
notes: IgG1, tested from HEK supernatant; also called VH4-102L
B3: VH4 C102S/VK2 (antibody, IgG1, V domains shown)
VH: B1 VH with A104S
VL: B1 VL
notes: as for B1
B4: VH4 C102T/VK2 (antibody, IgG1, V domains shown)
VH: B1 VH with A104T
VL: B1 VL
notes: as for B1
B5: VH4 C102V/VK2 (antibody, IgG1, V domains shown)
VH: B1 VH with A104V
VL: B1 VL
notes: IgG1, tested from HEK supernatant; also called VH4-102V
B6: VH5 C102A/VK2 (antibody, IgG1, V domains shown)
VH: B1 VH with V72R
VL: B1 VL
notes: as for B1
B7: VH5 C102L/VK2 (antibody, IgG1, V domains shown)
VH: B1 VH with V72R, A104L
VL: B1 VL
notes: IgG1, tested from HEK supernatant; also called VH5-102L
B8: VH5 C102S/VK2 (antibody, IgG1, V domains shown)
VH: B1 VH with V72R, A104S
VL: B1 VL
notes: as for B1
B9: VH5 C102V/VK2 (antibody, IgG1, V domains shown)
VH: B1 VH with V72R, A104V
VL: B1 VL
notes: IgG1, tested from HEK supernatant; also called VH5-102V
B10: humanized anti-fibrin antibody variant VH5 C102G/VK2 (antibody, IgG1, V domains shown)
VH: B1 VH with V72R, A104G
VL: B1 VL
notes: IgG1, tested from HEK supernatant in the SPR assay; also called VH5 C102G/Vκ2; VH5-102G

Biological target: T1, P2 peptide comprising SEQ ID NO: 31 (human fibrin γ377-395) (human)
Experiment: SPR (Biacore) single cycle, steady state

binding, binds:
B1, B2, B3, B4, B5, B6, B7, B8, B9

Biological target: T2, fibrin(ogen) accumulated in spinal cord lesions of mice with chronic EAE (mouse)
Experiment: staining of spinal cord sections of chronic EAE mice with VH5 C102G/Vκ2-biotin and CY3-streptavidin

binding, binds:
B10

Biological target: T2, fibrin(ogen) accumulated in spinal cord lesions of mice with chronic EAE (mouse)
Experiment: fluorescence staining of spinal cord sections of chronic EAE mice with VH5 C102G/VK2-biotin and CY3-streptavidin, beside a fibrinogen stain

binding, binds:
B10

Biological target: T1, P2 peptide comprising SEQ ID NO: 31 (human fibrin γ377-395) (human)
Experiment: SPR (Biacore), single cycle kinetics, antibody from HEK supernatant captured on anti-human chip, fibrin peptide γ377-395 as analyte, steady state fit

binding, binds:
B1, B2, B3, B4, B5, B6, B7, B8, B9
